Reference: publication PMC13064811, “The Role of Disulfide Bonds in the GluN1 Subunit in the Early Trafficking and Functional Properties of GluN1/GluN2 and GluN1/GluN3 NMDA Receptors” (The Journal of Neuroscience, 2026)
Results are given in words; binding and its absence hold for the method and conditions named. In cells and extracts the contact can be indirect. Some entries that bind do so weakly or less than the wild type.

Sequences of proteins named here, by UniProt entry; tags and fusion partners are left off. A change or cut given only in a name is not applied to a line headed by its entry. Residues count along the entry.
UniProt Q9R1M7, residues 24-1135: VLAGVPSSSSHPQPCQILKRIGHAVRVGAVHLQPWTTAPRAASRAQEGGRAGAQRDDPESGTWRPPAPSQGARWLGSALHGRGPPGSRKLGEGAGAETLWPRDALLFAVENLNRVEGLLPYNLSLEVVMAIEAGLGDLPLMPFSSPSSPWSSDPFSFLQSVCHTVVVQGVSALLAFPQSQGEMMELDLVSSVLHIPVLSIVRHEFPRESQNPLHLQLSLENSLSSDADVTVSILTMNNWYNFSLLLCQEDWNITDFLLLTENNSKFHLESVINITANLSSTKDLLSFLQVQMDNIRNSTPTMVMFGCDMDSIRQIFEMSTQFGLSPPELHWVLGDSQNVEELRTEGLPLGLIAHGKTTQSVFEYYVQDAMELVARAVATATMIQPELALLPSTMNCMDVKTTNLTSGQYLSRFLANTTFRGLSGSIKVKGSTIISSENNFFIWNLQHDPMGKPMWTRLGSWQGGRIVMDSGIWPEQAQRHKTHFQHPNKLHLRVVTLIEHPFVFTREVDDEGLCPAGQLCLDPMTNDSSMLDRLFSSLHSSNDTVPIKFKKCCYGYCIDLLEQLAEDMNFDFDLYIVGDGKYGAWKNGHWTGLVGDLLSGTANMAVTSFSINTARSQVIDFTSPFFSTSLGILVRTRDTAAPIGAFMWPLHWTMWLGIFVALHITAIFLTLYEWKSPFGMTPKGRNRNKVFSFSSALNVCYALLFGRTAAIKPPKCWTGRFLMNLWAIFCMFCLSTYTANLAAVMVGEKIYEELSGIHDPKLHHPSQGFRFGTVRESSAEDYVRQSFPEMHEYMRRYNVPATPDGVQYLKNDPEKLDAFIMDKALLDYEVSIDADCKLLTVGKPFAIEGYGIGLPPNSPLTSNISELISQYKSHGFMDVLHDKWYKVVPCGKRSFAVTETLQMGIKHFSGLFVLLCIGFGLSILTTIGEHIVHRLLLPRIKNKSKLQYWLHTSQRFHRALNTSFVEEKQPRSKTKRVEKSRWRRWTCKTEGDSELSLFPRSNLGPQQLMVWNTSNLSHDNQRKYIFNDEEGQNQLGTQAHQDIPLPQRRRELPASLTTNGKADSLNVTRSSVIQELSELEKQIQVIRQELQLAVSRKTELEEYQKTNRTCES

Tests used:
[1] = molecular target: endogenous GluN3A subunit (rat (endogenous in primary hippocampal neurons)) (UniProt Q9R1M7); assay: co-IP; primary rat hippocampal neurons infected with lentivirus for 48 h; total lysate, 0.5% sodium deoxycholate; immunoprecipitated with anti-GluN3A antibody and protein A-Sepharose at 4°C; Western blot with anti-GluN2A, anti-GluN2B, anti-GFP
[2] = molecular target: WT YFP-hGluN1-1a subunit (human) (UniProt Q05586); assay: co-IP; primary rat hippocampal neurons infected with lentivirus for 48 h; solubilised with 0.5% sodium deoxycholate; immunoprecipitated with anti-GFP antibody and protein A-Sepharose at 4°C; Western blot with anti-GluN2A, anti-GluN2B, anti-GluN3A, anti-GFP
[3] = molecular target: YFP-hGluN1-1a-C744Y subunit (human) (UniProt Q05586); assay: as above

| Substance | binding [1] | binding [2] | binding [3] |
| --- | --- | --- | --- |
| YFP-hGluN1-1a-C744Y subunit (from UniProt Q05586-1 19-938) (receptor) | binds | – | – |
| endogenous GluN2A subunit (from UniProt Q00959 23-1464) (receptor) | binds | binds | binds |
| endogenous GluN3A subunit (from UniProt Q9R1M7-1 24-1135) (receptor) | – | binds | binds |
| WT YFP-hGluN1-1a subunit (from UniProt Q05586-1 19-938) (receptor) | binds | – | – |
| endogenous GluN2B subunit (from UniProt Q00960 27-1482) (receptor) | binds | binds | binds |
